Source: PubChem BioAssay AID212 (DTP/NCI, 2004)
The list shows only some results of the screen, not a fair sample: it is rich in T/C values a quarter to a half above the control, in often repeated tests (any T/C) and in doses without a T/C. Other doses and runs of a compound stand elsewhere. T/C is the treated group as % of the vehicle group. Schedule codes are those of the source, read here as Q, the interval in days (D) or hours (H), X, the number of doses. Some T/C values carry the count of animals alive at the toxicity check (mostly the fifth day); where none is given, no animal had died by that day. Some entries were tested several times; their values stand side by side, smallest first. Counts like (3×) count equal records among those shown. Some entries give survivors of the animals treated and no T/C: the source files T/C as zero there, which appears to mark a toxic dose or a test without result, not a measured value. Survivors were counted at the toxicity check, usually on the fifth day, unless a day is given; later deaths do not show. For survival time, this PubChem deposit counts one and a half times the control or more as active, and values a quarter to a half above the control carry no call in these data; other NCI protocols may use other cut-offs.

Tested on: BDF1 mice, colon carcinoma 38 sc, T/C %
Experiment: NCI In Vivo Anticancer Drug Screen. Data for tumor model Colon Carcinoma 38 (subcutaneous) in B6D2F1 (BDF1) mice
Method in brief: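 Mice with transplanted tumors are treated with compound or vehicle. Survival or tumor size is then measured in both groups. The ratio of treated to control gives the reported figure.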

[1] = T/C endpoint: median tumor weight (est.), dose: 800.0 mg/kg/injection, schedule: Q07DX002 (ip), vehicle: saline with Tween-80, higher T/C = larger tumour

Structure (SMILES): CCC[P+](c1ccccc1)(c1ccccc1)c1ccccc1
- T/C (T/C endpoint: median tumor weight (est.), dose: 6.25 mg/kg/injection, schedule: Q07DX003 (ip), vehicle: saline with Tween-80, evaluated on day 20, higher T/C = larger tumour): 137 % of control
- T/C (T/C endpoint: median tumor weight (est.), dose: 25.0 mg/kg/injection, schedule: Q07DX003 (ip), vehicle: saline with Tween-80, evaluated on day 20, higher T/C = larger tumour): 126 % of control

Structure (SMILES): Cc1c(-c2ccc(-c3ccccc3F)cc2)nc2ccc(F)cc2c1C(=O)O
- survivor count (T/C endpoint: median tumor weight (est.), dose: 40.0 mg/kg/injection, schedule: Q01DX008 (ip), vehicle: water, higher T/C = larger tumour): 6 of 10 on day 20
- survivor count (T/C endpoint: median tumor weight (est.), dose: 80.0 mg/kg/injection, schedule: Q01DX008 (ip), vehicle: water, higher T/C = larger tumour): 0 of 10 on day 20

Structure (SMILES): CCCCCCCCCCCCCC#CC(=O)O
- survivor count (T/C endpoint: median tumor weight (est.), dose: 100.0 mg/kg/injection, schedule: Q07DX002 (ip), vehicle: saline with Tween-80, higher T/C = larger tumour): 3 of 10 on day 20
- survivor count (T/C endpoint: median tumor weight (est.), dose: 200.0 mg/kg/injection, schedule: Q07DX002 (ip), vehicle: saline with Tween-80, higher T/C = larger tumour): 0 of 10 on day 20

Structure (SMILES): CC[C@](O)(C(=O)O)c1cc2n(c(=O)c1CO)Cc1cc3ccccc3nc1-2
- survivor count (T/C endpoint: median tumor weight (est.), dose: 200.0 mg/kg/injection, schedule: Q07DX003 (ip), vehicle: saline, higher T/C = larger tumour): 1 of 10 and 1 of 10 on day 20

Structure (SMILES): CC(C)=CCNc1ncnc2c1ncn2C1OC(CO)C(O)C1O (centres undefined)
- T/C (T/C endpoint: median tumor weight (est.), dose: 25.0 mg/kg/injection, schedule: Q07DX002 (ip), vehicle: saline with Tween-80, evaluated on day 20, higher T/C = larger tumour): 144 % of control
- T/C (T/C endpoint: median tumor weight (est.), dose: 50.0 mg/kg/injection, schedule: Q07DX002 (ip), vehicle: saline, evaluated on day 20, higher T/C = larger tumour): 130 % of control
- T/C (T/C endpoint: median tumor weight (est.), dose: 200.0 mg/kg/injection, schedule: Q07DX002 (ip), vehicle: saline, evaluated on day 20, higher T/C = larger tumour): 142 % of control
- survivor count (T/C endpoint: median tumor weight (est.), dose: 400.0 mg/kg/injection, schedule: Q07DX002 (ip), vehicle: saline with Tween-80, higher T/C = larger tumour): 0 of 10 on day 20

Structure (SMILES): N=C(N)c1ccc(/C=C/c2ccc(C(=N)N)cc2O)cc1
- T/C (T/C endpoint: median tumor weight (est.), dose: 50.0 mg/kg/injection, schedule: Q07DX002 (ip), vehicle: water, evaluated on day 20, higher T/C = larger tumour): 141 % of control

Structure (SMILES): O=c1[nH]cc(F)c(=O)[nH]1
- T/C (T/C endpoint: median survival time, dose: 21.6 mg/kg/injection, schedule: Q04DX004 (ip), vehicle: alkali diluted with saline, evaluated on day 18, higher T/C = longer survival): 140 % of control
- T/C (T/C endpoint: median survival time, dose: 21.6 mg/kg/injection, schedule: Q04DX004 (ip), vehicle: alkali diluted with saline, evaluated on day 93, higher T/C = longer survival): 139 % of control
- T/C (T/C endpoint: median survival time, dose: 27.0 mg/kg/injection, schedule: Q04DX002 (ip), vehicle: saline, higher T/C = longer survival): 128 % of control [9 of 10 alive on day 100]
- T/C (T/C endpoint: median survival time, dose: 36.0 mg/kg/injection, schedule: Q04DX004 (ip), vehicle: alkali diluted with saline, evaluated on day 18, higher T/C = longer survival): 132 % of control
- T/C (T/C endpoint: median survival time, dose: 36.0 mg/kg/injection, schedule: Q04DX004 (ip), vehicle: alkali diluted with saline, evaluated on day 93, higher T/C = longer survival): 129 % of control
- T/C (T/C endpoint: median survival time, dose: 45.0 mg/kg/injection, schedule: Q04DX002 (ip), vehicle: saline, higher T/C = longer survival): 142 % of control [9 of 10 alive on day 100]
- survivor count (T/C endpoint: median survival time, dose: 54.4 mg/kg/injection, schedule: Q01DX010 (ip), vehicle: saline, higher T/C = longer survival): 0 of 9 on day 95
- T/C (T/C endpoint: median survival time, dose: 60.0 mg/kg/injection, schedule: Q04DX003 (ip), vehicle: saline, higher T/C = longer survival): 137 % of control
- T/C (T/C endpoint: median survival time, dose: 68.0 mg/kg/injection, schedule: Q04DX004 (ip), vehicle: saline, higher T/C = longer survival): 132 % of control
- survivor count (T/C endpoint: median survival time, dose: 100.0 mg/kg/injection, schedule: Q04DX003 (ip), vehicle: saline, higher T/C = longer survival): 0 of 10 on day 33
- survivor count (T/C endpoint: median survival time, dose: 100.0 mg/kg/injection, schedule: Q04DX004 (ip), vehicle: alkali diluted with saline, higher T/C = longer survival): 0 of 8 on day 93
- survivor count (T/C endpoint: median survival time, dose: 105.0 mg/kg/injection, schedule: Q07DX003 (iv), vehicle: saline, higher T/C = longer survival): 5 of 10 on day 71
- survivor count (T/C endpoint: median survival time, dose: 110.0 mg/kg/injection, schedule: Q04DX004 (ip), vehicle: saline, higher T/C = longer survival): 2 of 10 on day 90
- survivor count (T/C endpoint: median survival time, dose: 125.0 mg/kg/injection, schedule: Q04DX002 (ip), vehicle: saline, higher T/C = longer survival): 2 of 10 on day 100
- survivor count (T/C endpoint: median survival time, dose: 150.0 mg/kg/injection, schedule: Q07DX003 (iv), vehicle: saline, higher T/C = longer survival): 0 of 10 on day 71
- survivor count (T/C endpoint: median survival time, dose: 167.0 mg/kg/injection, schedule: Q04DX004 (ip), vehicle: alkali diluted with saline, higher T/C = longer survival): 0 of 8 on day 93
- T/C (T/C endpoint: median tumor weight (est.), dose: 8.7 mg/kg/injection, schedule: Q07DX002 (ip), vehicle: saline, evaluated on day 20, higher T/C = larger tumour): 46, 77, 80, 81, 85 [9 of 10 alive on day 20], 93 % of control
- T/C (T/C endpoint: median tumor weight (est.), dose: 17.5 mg/kg/injection, schedule: Q07DX002 (ip), vehicle: saline, evaluated on day 20, higher T/C = larger tumour): 76, 96 (2×), 107, 107 [9 of 10 alive on day 20], 123 % of control
- T/C (T/C endpoint: median tumor weight (est.), dose: 35.0 mg/kg/injection, schedule: Q07DX002 (ip), vehicle: saline, evaluated on day 20, higher T/C = larger tumour): 30, 41, 49, 58, 60, 66, 73, 82, 89 % of control
- T/C (T/C endpoint: median tumor weight (est.), dose: 70.0 mg/kg/injection, schedule: Q07DX002 (ip), vehicle: saline, evaluated on day 20, higher T/C = larger tumour): 1, 5 [8 of 10 alive on day 20], 9, 31, 34, 51 (2×), 88, 92 % of control
- T/C (T/C endpoint: median tumor weight (est.), dose: 140.0 mg/kg/injection, schedule: Q07DX002 (ip), vehicle: saline, evaluated on day 20, higher T/C = larger tumour): 1, 2, 2 [8 of 10 alive on day 20], 8 % of control (2×)
- survivor count (T/C endpoint: median tumor weight (est.), dose: 140.0 mg/kg/injection, schedule: Q07DX002 (ip), vehicle: saline, higher T/C = larger tumour): 4 of 10 on day 20, 5 of 10 on day 20, 6 of 10 on day 20

Structure (SMILES): CCC(=O)Sc1ccccc1C(=O)Nc1ccc(Cl)cc1
- survivor count [1]: 5 of 10 on day 20

Structure (SMILES): CC(C)NCC(O)COc1ccc(O)c(O)c1 (centres undefined)
- survivor count (T/C endpoint: median tumor weight (est.), dose: 400.0 mg/kg/injection, schedule: Q07DX002 (ip), vehicle: saline, higher T/C = larger tumour): 0 of 10 on day 20
- survivor count (T/C endpoint: median tumor weight (est.), dose: 800.0 mg/kg/injection, schedule: Q07DX002 (ip), vehicle: saline, higher T/C = larger tumour): 0 of 10 on day 20

Structure (SMILES): NCCCNCCSP(=O)(O)O
- survivor count [1]: 0 of 10 on day 20

Structure (SMILES): CCCCCC1c2cc(O)ccc2OC1N1CCOCC1 (centres undefined)
- T/C (T/C endpoint: median tumor weight (est.), dose: 50.0 mg/kg/injection, schedule: Q07DX002 (ip), vehicle: saline with Tween-80, evaluated on day 20, higher T/C = larger tumour): 144 % of control [9 of 10 alive on day 20]
- survivor count (T/C endpoint: median tumor weight (est.), dose: 1800.0 mg/kg/injection, schedule: Q07DX002 (ip), vehicle: saline with Tween-80, higher T/C = larger tumour): 0 of 10 on day 20

Structure (SMILES): S=c1nc[nH]c2nc[nH]c12
- T/C (T/C endpoint: median tumor weight (est.), dose: 25.0 mg/kg/injection, schedule: Q07DX002 (ip), vehicle: Klucel (hydroxypropylcellulose) (HPC), evaluated on day 20, higher T/C = larger tumour): 3 [8 of 10 alive on day 20], 28 [9 of 10 alive on day 20], 35, 47, 54, 64 [9 of 10 alive on day 20], 78, 87, 91, 93, 113 % of control [8 of 10 alive on day 20]
- T/C (T/C endpoint: median tumor weight (est.), dose: 50.0 mg/kg/injection, schedule: Q07DX002 (ip), vehicle: Klucel (hydroxypropylcellulose) (HPC), evaluated on day 20, higher T/C = larger tumour): 10, 19 [9 of 10 alive on day 20], 41, 54, 57, 58, 63, 64, 70, 126 % of control
- survivor count (T/C endpoint: median tumor weight (est.), dose: 50.0 mg/kg/injection, schedule: Q07DX002 (ip), vehicle: Klucel (hydroxypropylcellulose) (HPC), higher T/C = larger tumour): 5 of 10 on day 20
- T/C (T/C endpoint: median tumor weight (est.), dose: 100.0 mg/kg/injection, schedule: Q07DX002 (ip), vehicle: Klucel (hydroxypropylcellulose) (HPC), evaluated on day 20, higher T/C = larger tumour): 1 [7 of 10 alive on day 20], 5 [9 of 10 alive on day 20], 9 [8 of 10 alive on day 20], 13, 14 [8 of 10 alive on day 20], 24 [8 of 10 alive on day 20], 27, 38 % of control
- survivor count (T/C endpoint: median tumor weight (est.), dose: 100.0 mg/kg/injection, schedule: Q07DX002 (ip), vehicle: Klucel (hydroxypropylcellulose) (HPC), higher T/C = larger tumour): 1 of 10 on day 20 and 6 of 10 on day 20
- T/C (T/C endpoint: median tumor weight (est.), dose: 200.0 mg/kg/injection, schedule: Q07DX002 (ip), vehicle: Klucel (hydroxypropylcellulose) (HPC), evaluated on day 20, higher T/C = larger tumour): 15 [9 of 10 alive on day 20] and 35 % of control
- survivor count (T/C endpoint: median tumor weight (est.), dose: 200.0 mg/kg/injection, schedule: Q07DX002 (ip), vehicle: Klucel (hydroxypropylcellulose) (HPC), higher T/C = larger tumour): 0 of 10 on day 20, 1 of 10 on day 20, 2 of 10 on day 20, 3 of 10 on day 20, 4 of 10 on day 20, 4 of 9 on day 20
- T/C (T/C endpoint: median tumor weight (est.), dose: 400.0 mg/kg/injection, schedule: Q07DX002 (ip), vehicle: Klucel (hydroxypropylcellulose) (HPC), evaluated on day 20, higher T/C = larger tumour): 20 % of control [8 of 10 alive on day 20]
- survivor count (T/C endpoint: median tumor weight (est.), dose: 400.0 mg/kg/injection, schedule: Q07DX002 (ip), vehicle: Klucel (hydroxypropylcellulose) (HPC), higher T/C = larger tumour): 0 of 10 on day 20 and 2 of 10 on day 20
